Assay results taken from US5597832A (Abbott Laboratories, priority 1994, dated 1997).
Structures can show the parent of a compound that is named as a salt. Some results were stated once for a whole list of compounds, not compound by compound.

Sequences of proteins named here, by UniProt entry; tags and fusion partners are left off.
UniProt P18901, whole entry: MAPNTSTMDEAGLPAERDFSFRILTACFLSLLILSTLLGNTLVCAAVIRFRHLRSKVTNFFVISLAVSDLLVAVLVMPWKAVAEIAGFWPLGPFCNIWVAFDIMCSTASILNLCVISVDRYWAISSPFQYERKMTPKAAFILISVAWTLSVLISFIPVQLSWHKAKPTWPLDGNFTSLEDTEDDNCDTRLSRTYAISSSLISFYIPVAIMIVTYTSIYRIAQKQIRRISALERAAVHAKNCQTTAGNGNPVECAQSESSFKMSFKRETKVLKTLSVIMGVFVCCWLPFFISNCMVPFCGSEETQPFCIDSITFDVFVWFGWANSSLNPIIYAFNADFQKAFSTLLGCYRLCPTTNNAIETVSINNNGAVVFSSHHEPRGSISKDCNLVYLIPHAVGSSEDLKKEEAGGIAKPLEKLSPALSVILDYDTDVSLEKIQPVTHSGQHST

Molecular target: dopamine D-1 receptor (Rattus norvegicus, UniProt P18901)
Details: read-out: D1 binding constants (Ki), see Table 1

**Q.** For Cc1ccc(-c2cc3c(s2)CNC2CCc4cc(O)c(O)cc4C32)cc1 (stereo not shown) [Example 46, 2-(4-Methylphenyl)-4,5,5a,6,7,11b-hexahydro-3-thia-5-aza-cyclopent-1-ena[c]phenanthrene-9,10-diol hydrobromide], which Ki is on record?
**A.** > 2.5 µM
